Results reported in article PMC4770211.
No constants are given. Whether binding was seen depends on the method and setting. For some assays here: Binding seen in cells or lysates may run through a third protein. For some assays here: Binding calls can cover weak binding; strength is not graded here. For some assays here: Tags and fused reporters may be left off the sequences shown. Blank lines part the entries; values can stand above or below the molecule they belong to.

Key:
[1] = biological target: T1, AtMed4, full length, yeast two-hybrid bait (Arabidopsis) (UniProt Q9LZ00); assay: two-hybrid; Matchmaker Gold system; BD (pGBKT7) and AD (pGADT7) constructs co-transformed in yeast strain AH109, selected on SD-Trp-/Leu-, spotted at OD600 ~0.2 on SD-Trp-/Leu-/His-/Ade-; full-length subunits and deletion fragments
T1 sequence: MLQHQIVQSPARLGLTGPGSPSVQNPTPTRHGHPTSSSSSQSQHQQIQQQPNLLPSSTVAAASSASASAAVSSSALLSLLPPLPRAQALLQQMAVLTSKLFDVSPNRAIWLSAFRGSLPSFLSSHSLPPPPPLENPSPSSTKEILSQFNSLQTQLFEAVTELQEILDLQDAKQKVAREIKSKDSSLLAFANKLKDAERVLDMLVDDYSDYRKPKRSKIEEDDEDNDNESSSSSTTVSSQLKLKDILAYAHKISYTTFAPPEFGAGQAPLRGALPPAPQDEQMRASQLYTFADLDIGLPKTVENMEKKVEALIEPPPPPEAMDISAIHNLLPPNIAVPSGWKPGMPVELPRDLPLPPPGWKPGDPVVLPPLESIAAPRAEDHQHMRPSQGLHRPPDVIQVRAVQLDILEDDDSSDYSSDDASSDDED

[2] = biological target: AtMed7, BiFC fusion (Arabidopsis); assay: split reporter; BiFC assay; vectors and cells not told for this pair

binding [1]: no binding
Molecule: AtMed7, yeast two-hybrid fusion (Arabidopsis)

binding [2]: binds
B1: AtMed21, BiFC fusion (protein, UniProt C0LU16 1-139)
chain: MDIISQLQEQVNTIAAITFNAFGTLQRDAPPVQLSPNYPEPPATTTVTDDATPFPEQPKQLSAGLVKAAKQFDALVAALPLSEGGEGAQLKRIAELQVENDLVGQELQKQLEAAEKELKQVQELFGQAADNCLNMKKPE
